Measurements reported in PubChem BioAssay AID1224828 (NIAID, 2016)

Assay: 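Find genes required for NF-kappaB p65 moving into the nucleus after LPS in mouse macrophages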 (primary screen)
Cells: mouse RAW264.7 G9 macrophage reporter cells (GFP-p65, Tnf promoter-mCherry)
Reagent: siRNA pool against mouse genes, 100 nM
Timing: 2 days siRNA transfection, then 40 min LPS before fixation
Treatment: LPS (Salmonella minnesota R595) at 10 ng/ml
Measured: 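Imaged p65 nuclear translocation ratio, normalised to the plate median, converted to robust z-scores and averaged across two replicates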
Scale: p65 translocation robust z-score: higher = more nuclear NF-kappaB p65 after LPS than the plate median; nuclear/cytoplasmic p65 ratio: higher = more nuclear NF-kappaB p65
Call rule: 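Active if robust z is above 3.3 (negative regulators) or below -1.56, the Tlr4 control median (positive regulators); activity score 50 or more; control wells not called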
Calls: active = hit (p65 shift raised or lowered); inactive = no clear change
This is an unselected part of about 17,000 reagents. 762 of them (4.5%) count as active. 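Active calls include both raised and lowered p65 entry, mostly lowered; wells with fewer than 50 cells lack a z-score.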 Raw values are not corrected between plates. Entries without a mark were called inactive. Reagents against one gene are numbered here.

| Target gene | pool no. | p65 translocation robust z-score | nuclear/cytoplasmic p65 ratio, rep 1 | nuclear/cytoplasmic p65 ratio, rep 2 | low cell count flag |
| --- | --- | --- | --- | --- | --- |
| Fntb (farnesyltransferase, CAAX box, beta) | 1 | 1.97 | 1.66 | 1.66 | enough cells to score |
| Hoxd12 (homeobox D12) | 1 | -1.29 | 1.31 | 1.17 | enough cells to score |
| Eri2 (exoribonuclease 2) | 1 | 1.84 | 1.55 | 1.76 | enough cells to score |
| Crk (Crk proto-oncogene, adaptor protein) | 1 | -0.68 | 1.47 | 1.22 | enough cells to score |
| Pfkfb3 (6-phosphofructo-2-kinase/fructose-2,6-biphosphatase 3) | 1 | 0.14 | 1.65 | 1.44 | enough cells to score |
| Vars1 (valyl-tRNA synthetase 1) | 1 | -0.5 | 1.26 | 1.17 | enough cells to score |
| Prl3d2 (prolactin family 3, subfamily d, member 2) | 1 | 0.59 | 1.45 | 1.19 | enough cells to score |
| Zrsr2 | 1 | -2.18 (active) | 1.05 | 1.03 | enough cells to score |
| Trem1 (triggering receptor expressed on myeloid cells 1) | 1 | -0.23 | 1.48 | 1.47 | enough cells to score |
| Pmfbp1 (polyamine modulated factor 1 binding protein 1) | 1 | – | 1.23 | 1.14 | fewer than 50 cells per well; well left out of scoring |
| Minar1 (membrane integral NOTCH2 associated receptor 1) | 1 | -1.41 | 1.38 | 1.35 | enough cells to score |
| BC028528 (cDNA sequence BC028528) | 1 | -0.32 | 1.37 | 1.51 | enough cells to score |
| Slc10a6 | 1 | 2.24 | 1.65 | 1.95 | enough cells to score |
| Ccr2 (C-C motif chemokine receptor 2) | 1 | -1.72 (active) | 1.29 | 1.31 | enough cells to score |
| Pced1b (PC-esterase domain containing 1B) | 1 | 0.39 | 1.71 | 1.66 | enough cells to score |
| Zfp109 (zinc finger protein 109) | 1 | 0.23 | 1.41 | 1.3 | enough cells to score |
| Mink1 (misshapen-like kinase 1 (zebrafish)) | 1 | -0.36 | 1.65 | 1.32 | enough cells to score |
| Ifit2 (interferon-induced protein with tetratricopeptide repeats 2) | 1 | – | 0.969 | 1.16 | fewer than 50 cells per well; well left out of scoring |
| Nyx (nyctalopin) | 1 | -0.67 | 1.38 | 1.31 | enough cells to score |
| Cct3 (chaperonin containing TCP1 subunit 3) | 1 | 1.57 | 1.44 | 1.58 | enough cells to score |
| Cyld (CYLD lysine 63 deubiquitinase) | 1 | -0.29 | 1.38 | 1.39 | enough cells to score |
| Gpx6 (glutathione peroxidase 6) | 1 | 2.11 | 2 | 1.81 | enough cells to score |
| Arl5b (ADP-ribosylation factor-like 5B) | 1 | -0.39 | 1.53 | 1.47 | enough cells to score |
| Wasf2 (WASP family, member 2) | 1 | -0.81 | 1.44 | 1.44 | enough cells to score |
| Arsk (arylsulfatase K) | 1 | -0.1 | 1.31 | 1.21 | enough cells to score |
| Ngfr (nerve growth factor receptor (TNFR superfamily, member 16)) | 1 | 0.28 | 1.47 | 1.46 | enough cells to score |
| Rcn2 (reticulocalbin 2) | 1 | 2.56 | 1.75 | 1.51 | enough cells to score |
| Npy1r (neuropeptide Y receptor Y1) | 1 | 3.56 (active) | 1.74 | 2.39 | enough cells to score |
| Pcdhb20 (protocadherin beta 20) | 1 | -0.5 | 1.37 | 1.36 | enough cells to score |
| D17H6S56E-5 (DNA segment, Chr 17, human D6S56E 5) | 1 | 0.92 | 1.68 | 1.6 | enough cells to score |
| Card11 (caspase recruitment domain family, member 11) | 1 | 0.3 | 1.7 | 1.76 | enough cells to score |
| Smarca2 | 1 | 0.61 | 1.57 | 1.71 | enough cells to score |
| Arid1a (AT-rich interaction domain 1A) | 1 | -0.01 | 1.67 | 1.57 | enough cells to score |
| Or2d4 (olfactory receptor family 2 subfamily D member 4) | 1 | – | 1.39 | 1.18 | fewer than 50 cells per well; well left out of scoring |
| Srp54a (signal recognition particle 54A) | 1 | – | 1.46 | 1.27 | fewer than 50 cells per well; well left out of scoring |
| Lce1a1 (late cornified envelope 1A1) | 1 | 0.29 | 1.44 | 1.28 | enough cells to score |
| Lysmd1 (LysM, putative peptidoglycan-binding, domain containing 1) | 1 | 1.46 | 1.52 | 1.66 | enough cells to score |
| Ear10 (eosinophil-associated, ribonuclease A family, member 10) | 1 | – | 1.32 | 1.3 | fewer than 50 cells per well; well left out of scoring |
| Llgl2 (LLGL2 scribble cell polarity complex component) | 1 | 1.03 | 1.8 | 1.76 | enough cells to score |
| Sfxn1 (sideroflexin 1) | 1 | 0.25 | 1.45 | 1.27 | enough cells to score |
| Mrgpra1 (MAS-related GPR, member A1) | 1 | -0.49 | 1.8 | 1.43 | enough cells to score |
| Apon (apolipoprotein N) | 1 | 0.93 | 1.64 | 2.01 | enough cells to score |
| Mast4 | 1 | 1.09 | 1.73 | 1.82 | enough cells to score |
| Acp5 (acid phosphatase 5, tartrate resistant) | 1 | 0.79 | 1.79 | 1.69 | enough cells to score |
| Chlsn (cholesin) | 1 | – | 1.23 | 1.57 | fewer than 50 cells per well; well left out of scoring |
| Klhl9 (kelch-like 9) | 1 | 0.61 | 1.51 | 1.59 | enough cells to score |
| Zbed4 (zinc finger, BED type containing 4) | 1 | 0.95 | 1.88 | 1.67 | enough cells to score |
| C1ql2 (complement component 1, q subcomponent-like 2) | 1 | 1.64 | 1.61 | 1.8 | enough cells to score |
| Or6c2 (olfactory receptor family 6 subfamily C member 2) | 1 | -0.47 | 1.36 | 1.21 | enough cells to score |
| S100a3 (S100 calcium binding protein A3) | 1 | -0.74 | 1.42 | 1.75 | enough cells to score |
| Tspan9 (tetraspanin 9) | 1 | -0.23 | 1.48 | 1.42 | enough cells to score |
| H2-T22 (histocompatibility 2, T region locus 22) | 1 | 1.55 | 1.96 | 1.69 | enough cells to score |
| H2-T22 (histocompatibility 2, T region locus 22) | 2 | -2.2 (active) | 1.55 | 1.24 | enough cells to score |
| H2-T22 (histocompatibility 2, T region locus 22) | 3 | 1 | 1.91 | 1.58 | enough cells to score |
| Or4k36 (olfactory receptor family 4 subfamily K member 36) | 1 | 0.54 | 1.63 | 1.55 | enough cells to score |
| Evi2b (ecotropic viral integration site 2b) | 1 | -0.11 | 1.43 | 1.37 | enough cells to score |
| Anp32b (acidic nuclear phosphoprotein 32 family member B) | 1 | 1.13 | 1.68 | 1.96 | enough cells to score |
| Or52s19 (olfactory receptor family 52 subfamily S member 19) | 1 | 1.34 | 1.62 | 1.35 | enough cells to score |
| Rab11fip1 (RAB11 family interacting protein 1 (class I)) | 1 | -0.58 | 1.53 | 1.52 | enough cells to score |
| Nkx2-2 (NK2 homeobox 2) | 1 | 0.29 | 1.49 | 1.45 | enough cells to score |
| Cpsf2 (cleavage and polyadenylation specific factor 2) | 1 | – | 1.39 | 1.5 | fewer than 50 cells per well; well left out of scoring |
| Klhl23 (kelch-like 23) | 1 | 0.68 | 1.52 | 1.54 | enough cells to score |
| Cib3 (calcium and integrin binding family member 3) | 1 | -0.53 | 1.52 | 1.55 | enough cells to score |
| Zfp706 (zinc finger protein 706) | 1 | – | 1 | 1.07 | fewer than 50 cells per well; well left out of scoring |
| Plscr4 (phospholipid scramblase 4) | 1 | 0.06 | 1.39 | 1.22 | enough cells to score |
| Tspan11 (tetraspanin 11) | 1 | 1.45 | 1.72 | 1.67 | enough cells to score |
| Apbb1 (amyloid beta precursor protein binding family B member 1) | 1 | 0.14 | 1.69 | 1.59 | enough cells to score |
| Rtcb (RNA 2',3'-cyclic phosphate and 5'-OH ligase) | 1 | 0.97 | 1.61 | 2.06 | enough cells to score |
| Tmem186 (transmembrane protein 186) | 1 | – | 0.925 | 1.15 | fewer than 50 cells per well; well left out of scoring |
| Polq (polymerase (DNA directed), theta) | 1 | 0.6 | 1.42 | 1.32 | enough cells to score |
| Zbtb40 (zinc finger and BTB domain containing 40) | 1 | 2.34 | 1.83 | 1.77 | enough cells to score |
| E230001N04Rik (RIKEN cDNA E230001N04 gene) | 1 | 0.17 | 1.5 | 1.37 | enough cells to score |
| Adra1d (adrenergic receptor, alpha 1d) | 1 | 0.21 | 1.54 | 1.61 | enough cells to score |
| Napb | 1 | -0.25 | 1.42 | 1.31 | enough cells to score |
| Ndst3 (N-deacetylase/N-sulfotransferase (heparan glucosaminyl) 3) | 1 | -0.67 | 1.69 | 1.48 | enough cells to score |

Records above marked active:
| Target gene | pool no. | p65 translocation robust z-score | nuclear/cytoplasmic p65 ratio, rep 1 | nuclear/cytoplasmic p65 ratio, rep 2 | low cell count flag |
| --- | --- | --- | --- | --- | --- |
| Zrsr2 | 1 | -2.18 (active) | 1.05 | 1.03 | enough cells to score |
| Ccr2 (C-C motif chemokine receptor 2) | 1 | -1.72 (active) | 1.29 | 1.31 | enough cells to score |
| Npy1r (neuropeptide Y receptor Y1) | 1 | 3.56 (active) | 1.74 | 2.39 | enough cells to score |
| H2-T22 (histocompatibility 2, T region locus 22) | 2 | -2.2 (active) | 1.55 | 1.24 | enough cells to score |
